Source: PubChem BioAssay AID1224830 (NIAID, 2016)

Assay: 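Genes whose knock-down alters the TNF-alpha reporter response to LPS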 (primary screen)
Cell system: human THP-1 monocytic leukaemia cells, TNF dual-luciferase reporter clone, PMA-differentiated to macrophage-like cells
Reagent: siRNA pool against human genes, 50 nM
Time to read-out: LPS for 4 h, given about 3 days after siRNA transfection
Conditions: bacterial LPS (TLR4 ligand), 10 ng/ml
Measured: 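TNF firefly reporter luminescence divided by renilla, normalised to the plate median, then turned into a robust z-score for each replicate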
Direction: TNF reporter robust z-score: higher = stronger TNF reporter response to LPS
Call rule: 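a well is active when its z-score exceeds 2.8 or falls below -1.5; control wells carry no call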
In all, the deposit lists about 18,000 reagents; shown is a random part of them. About 2,900 of all reagents (16%) were called active. 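Calls are made per well; low scores hint the gene aids the LPS response, high scores that it dampens it.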 Repeated entries: four replicate wells of each siRNA pool. No sequences are given here.

The first 2 records, to show the layout:
no.	gene	TNF reporter robust z-score	call
1	ACKR4 (GeneID 51554)	-0.07	inactive
2	ACKR4 (GeneID 51554)	0	inactive

The listing, from the start:
no.	gene	TNF reporter robust z-score	call
1	ACKR4 (GeneID 51554)	-0.07	inactive
2	ACKR4 (GeneID 51554)	0	inactive
3	ACKR4 (GeneID 51554)	-0.35	inactive
4	ACKR4 (GeneID 51554)	-0.4	inactive
5	ZCCHC24 (GeneID 219654)	2.28	inactive
6	ZCCHC24 (GeneID 219654)	1.22	inactive
7	ZCCHC24 (GeneID 219654)	1.13	inactive
8	ZCCHC24 (GeneID 219654)	6.93	active
9	XRCC2 (GeneID 7516)	0.25	inactive
10	XRCC2 (GeneID 7516)	1.82	inactive
11	XRCC2 (GeneID 7516)	1.91	inactive
12	XRCC2 (GeneID 7516)	2.74	inactive
13	CPO (GeneID 130749)	0.94	inactive
14	CPO (GeneID 130749)	-0.24	inactive
15	CPO (GeneID 130749)	-0.73	inactive
16	CPO (GeneID 130749)	0.07	inactive
17	HELT (GeneID 391723)	-0.98	inactive
18	HELT (GeneID 391723)	-1.22	inactive
19	HELT (GeneID 391723)	-0.75	inactive
20	HELT (GeneID 391723)	-0.95	inactive
21	HTR2B (GeneID 3357)	-0.53	inactive
22	HTR2B (GeneID 3357)	0.92	inactive
23	HTR2B (GeneID 3357)	0.65	inactive
24	HTR2B (GeneID 3357)	0.95	inactive
25	NMI (GeneID 9111)	-1.26	inactive
26	NMI (GeneID 9111)	-1.07	inactive
27	NMI (GeneID 9111)	-1.12	inactive
28	NMI (GeneID 9111)	-1.22	inactive
29	CACNB3 (GeneID 784)	-0.42	inactive
30	CACNB3 (GeneID 784)	0.06	inactive
31	CACNB3 (GeneID 784)	0.22	inactive
32	CACNB3 (GeneID 784)	0.69	inactive
33	MS4A10 (GeneID 341116)	-0.76	inactive
34	MS4A10 (GeneID 341116)	-0.01	inactive
35	MS4A10 (GeneID 341116)	-0.44	inactive
36	MS4A10 (GeneID 341116)	-0.11	inactive
37	CRACDL (GeneID 343990)	-0.67	inactive
38	CRACDL (GeneID 343990)	-1.05	inactive
39	CRACDL (GeneID 343990)	-0.6	inactive
40	CRACDL (GeneID 343990)	0.08	inactive
41	AKIP1 (GeneID 56672)	1.72	inactive
42	AKIP1 (GeneID 56672)	1.66	inactive
43	AKIP1 (GeneID 56672)	-0.05	inactive
44	AKIP1 (GeneID 56672)	0.24	inactive
45	SORBS1 (GeneID 10580)	-0.1	inactive
46	SORBS1 (GeneID 10580)	-0.67	inactive
47	SORBS1 (GeneID 10580)	0.02	inactive
48	SORBS1 (GeneID 10580)	-0.45	inactive
49	LARP1B (GeneID 55132)	0.61	inactive
50	LARP1B (GeneID 55132)	0.22	inactive
51	LARP1B (GeneID 55132)	0.31	inactive
52	LARP1B (GeneID 55132)	-0.44	inactive
53	GET3 (GeneID 439)	-0.12	inactive
54	GET3 (GeneID 439)	1.74	inactive
55	GET3 (GeneID 439)	0.43	inactive
56	GET3 (GeneID 439)	1.53	inactive
57	PHF23 (GeneID 79142)	-1	inactive
58	PHF23 (GeneID 79142)	0.15	inactive
59	PHF23 (GeneID 79142)	-1.38	inactive
60	PHF23 (GeneID 79142)	-0.54	inactive
61	CAPN5 (GeneID 726)	-0.24	inactive
62	CAPN5 (GeneID 726)	-0.44	inactive
63	CAPN5 (GeneID 726)	-1.02	inactive
64	CAPN5 (GeneID 726)	0.33	inactive
65	RNF168 (GeneID 165918)	-1.19	inactive
66	RNF168 (GeneID 165918)	-0.17	inactive
67	RNF168 (GeneID 165918)	0.91	inactive
68	RNF168 (GeneID 165918)	0.43	inactive
69	ELMOD3 (GeneID 84173)	-0.2	inactive
70	ELMOD3 (GeneID 84173)	1.16	inactive
71	ELMOD3 (GeneID 84173)	-0.98	inactive
72	ELMOD3 (GeneID 84173)	1.61	inactive
73	OLIG2 (GeneID 10215)	-1.09	inactive
74	OLIG2 (GeneID 10215)	-0.8	inactive
75	OLIG2 (GeneID 10215)	-1.33	inactive
76	OLIG2 (GeneID 10215)	-0.98	inactive
